Literature values as cited in patent US11639483B2, “Macrocyclic musk lactones and uses thereof” (PHYTO TECH CORP., priority 2021, dated 2023).

Conditions: biodegradability; cited from earlier work

Structure (SMILES) | % DEG IN READY TEST OECD 301B [%]
CC1COCc2cc3c(cc21)C(C)(C)C(C)C3(C)C (stereo not drawn) [Galaxolide, galaxolide] | 0
Cc1c([N+](=O)[O-])c(C)c([N+](=O)[O-])c(C(C)(C)C)c1[N+](=O)[O-] [MUSK XYLENE] | 2
C[C@@H]1CCCCCCCCCCCCC(=O)C1 [MUSCONE, Muscone] | 80
